# Results published in publication PMC9769556.
# Target: T1, T25-tagged DrRecA (plasmid pKNT25recA) in E. coli BTH101 (D. radiodurans) (UniProt P42443)
# T1 sequence: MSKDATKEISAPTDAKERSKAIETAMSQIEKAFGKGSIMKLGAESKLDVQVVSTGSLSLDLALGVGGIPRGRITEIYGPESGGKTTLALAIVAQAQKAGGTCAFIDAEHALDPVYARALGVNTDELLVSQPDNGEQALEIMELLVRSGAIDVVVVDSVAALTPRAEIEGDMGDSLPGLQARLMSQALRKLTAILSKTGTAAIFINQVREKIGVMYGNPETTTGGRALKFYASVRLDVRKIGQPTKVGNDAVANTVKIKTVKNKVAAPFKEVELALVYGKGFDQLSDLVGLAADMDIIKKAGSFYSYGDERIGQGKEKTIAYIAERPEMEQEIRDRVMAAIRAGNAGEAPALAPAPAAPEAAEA
# Test: two-hybrid; bacterial two-hybrid (BACTH) in E. coli BTH101; T18 and T25 fusions coexpressed; blue colonies on X-Gal/IPTG plates at 30 C for 12 h and beta-galactosidase activity in solution
substance,measurement,value
T18-tagged DrDprA (plasmid pUTdprA) in E. coli BTH101 (D. radiodurans),binding,binds

# These are yes or no findings as the source states them, for the method shown. Binding calls can cover weak binding; strength is not graded here. Tags and fused reporters may be left off the sequences shown.
